The test system of experiment [1] is SARS-CoV-2 -1 PRF reporter mCherry-FSE-GFP(-1). Nature of the experiment: mCherry (red) intensity as percent of control; higher = higher upstream reporter expression. Particulars: 10 µM; 24 h; HEK293T.
For experiment [2] the test system is unchanged. Put plainly: percent effect, decrease of GFP/mCherry ratio (-1 PRF reporter) relative to controls; higher = stronger frameshift inhibition. Particulars: 10 µM; 24 h; HEK293T.

Values joined by “and” are separate entries in the source; they are usually repeats but may differ in a detail not shown here. Identical values can stand only once. The list shows a part of the results. This data set is noisy: repeats of one test often differ as much as different tests do.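 HEK293T cells were given each compound shortly before transfection with a reporter in which red mCherry is followed by the SARS-CoV-2 frameshift element and then GFP in the −1 frame, so GFP appears only after frameshifting.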

Take `CCC(=O)O[C@]1(C(=O)CCl)[C@@H](C)C[C@H]2[C@@H]3CCC4=CC(=O)C=C[C@]4(C)[C@@]3(F)[C@@H](O)C[C@@]21C` [Temovate]: the mCherry in experiment [1] amounted to 117%. Besides, the percent effect in experiment [2] is -4.73%.

As to `CCCOc1cc(N)ccc1C(=O)OCCN(CC)CC`, the mCherry in experiment [1] is 111%. For the same compound, in experiment [2], the percent effect was -1.18%.

On to `CC(COc1ccccc1)N(CCCl)Cc1ccccc1` (centres undefined) [phenoxybenzamine], for which the mCherry in experiment [1] is 75.6% and 85.8%. In experiment [2], the percent effect was -1.23% and -0.147%.

Take `CN1CC(O)c2cc(N=NC(N)=O)c(O)cc21` (centres undefined) [carbazochrome]: the mCherry in experiment [1] stood at 91.2%. Further, the percent effect in experiment [2] was -2.73%.

In experiment [1], `CCCCN1CCCC1C(=O)Nc1c(C)cc(C)cc1C` (centres undefined) [bumecaine] registered a mCherry of 104%. Besides, the percent effect in experiment [2] was -0.472%.

Regarding `C/C=C(/C)C(=O)O[C@H]1[C@H](OC(C)=O)[C@@]2(CO)C(CC1(C)C)C1=CCC3[C@@]4(C)CCC(O[C@@H]5O[C@H](C(=O)O)[C@@H](O[C@@H]6O[C@H](CO)[C@@H](O)[C@H](O)[C@H]6O)[C@H](O)[C@H]5O[C@@H]5O[C@H](CO)[C@@H](O)[C@H](O)[C@H]5O)[C@](C)(CO)C4CC[C@@]3(C)[C@]1(C)C[C@H]2O.C/C=C(\C)C(=O)O[C@H]1[C@H](OC(C)=O)[C@@]2(CO)C(CC1(C)C)C1=CCC3[C@@]4(C)CCC(O[C@@H]5O[C@H](C(=O)O)[C@@H](O[C@@H]6O[C@H](CO)[C@@H](O)[C@H](O)[C@H]6O)[C@H](O)[C@H]5O[C@@H]5O[C@H](CO)[C@@H](O)[C@H](O)[C@H]5O)[C@](C)(CO)C4CC[C@@]3(C)[C@]1(C)C[C@H]2O` (some centres undefined), the mCherry in experiment [1] is 110%. Besides, the percent effect in experiment [2] amounted to 0.505%.

The compound `CC1(C)[C@@H](OC(=O)CCC(=O)O)CC[C@]2(C)[C@H]3C(=O)C=C4[C@@H]5C[C@@](C)(C(=O)O)CC[C@]5(C)CC[C@@]4(C)[C@]3(C)CC[C@@H]12` [carbenoxolone] yielded a mCherry in experiment [1] of 116%. In experiment [2], the percent effect was -2.24%.

The values above are taken from the supplement of paper PMC8256030.
